This assay concerns the target eGFP-Mu2 (Drosophila MDC1 homolog) (Drosophila). The assay is described as follows: proximity ligation; Duolink in situ PLA (fluorescence) on third instar larval eye discs expressing the tagged transgenes; rabbit anti-V5 + mouse anti-GFP for TER94 and Mu2; rabbit anti-Myc + mouse anti-GFP for p53 and Mu2.

Our source for the binding values is paper PMC8275807.

Results are given in words; binding and its absence hold for the method and conditions named. Binding seen in cells or lysates may run through a third protein. A result given as binding can be weak or reduced; the word gives no strength. Tags and fused reporters may be left off the sequences shown.

B1: 6XMyc-p53A (Drosophila p53 isoform A) (protein, UniProt Q9N6D8 1-385)
chain: MYISQPMSWHKESTDSEDDSTEVDIKEDIPKTVEVSGSELTTEPMAFLQGLNSGNLMQFSQQSVLREMMLQDIQIQANTLPKLENHNIGGYCFSMVLDEPPKSLWMYSIPLNKLYIRMNKAFNVDVQFKSKMPIQPLNLRVFLCFSNDVSAPVVRCQNHLSVEPLTANNAKMRESLLRSENPNSVYCGNAQGKGISERFSVVVPLNMSRSVTRSGLTRQTLAFKFVCQNSCIGRKETSLVFCLEKACGDIVGQHVIHVKICTCPKRDRIQDERQLNSKKRKSVPEAAEEDEPSKVRRCIAIKTEDTESNDSRDCDDSAAEWNVSRTPDGDYRLAITCPNKEWLLQSIEGMIKEAAAEVLRNPNQENLRRHANKLLSLKKRAYELP
For B1, the binding result was “binds”.
